# Reference: patent publication US20260041696A1, “IN-SITU PRODUCTION OF ANTI-INFLAMMATORY LIPIDS USING MILK FAT GLOBULES” (THE REGENTS OF THE UNIVERSITY OF CALIFORNIA, priority 2023, published 2026)
# Assay: Incubation of milk cream (MFG) with DHA at room temperature or on ice; free and total oxylipins by UPLC-MS/MS
# Set-up: species or system bovine
# Conditions: for detection of DHA-derived diols: across treatments regardless of DHA addition
SMILES,detection of DHA-derived diols,share esterified (bound) (milk cream incubated with DHA),share in free form (milk cream incubated with DHA)
"CCC(O)C(O)C/C=C\C/C=C\C/C=C\C/C=C\C/C=C\CCC(=O)O (racemic) [19(20)-DiHDPA, (±)19,20-dihydroxy-4Z,7Z,10Z,13Z,16Z-docosapentaenoic acid]",not detected in most replicates,,
"CCC1OC1CC=CCC=CCC=CCC=CCC=CCCC(=O)O (stereo not shown) [19(20)-EpDPE, 19(20)-epoxydocosapentaenoic acid]",,60%,40%
"CC/C=C\CC(O)C(O)C/C=C\C/C=C\C/C=C\C/C=C\CCC(=O)O (racemic) [16(17)-DiHDPA, (±)16,17-dihydroxy-4Z,7Z,10Z,13Z,19Z-docosapentaenoic acid]",not detected in most replicates,,
